This is one part of the list.
Tests used:
Assay in all cases: glycan array binding signal (z-score within array); higher = stronger binding
Details in all cases: glycan notation: IUPAC condensed, linker removed
[1] = target: Gal(b1-4)GlcNAc(b1-3)Gal(b1-4)GlcNAc(b1-3)[Gal(b1-4)GlcNAc(b1-3)Gal(b1-4)GlcNAc(b1-6)]GalNAc
In short: (§1)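 The binding signal is a Z-score computed within each array. Data were drawn from 3228 arrays in the Consortium for Functional Glycomics database, restricted to those with a known protein sequence. Scores were averaged over arrays of the same protein sequence at different concentrations or buffers, and over linkers, and negative values can be taken as non-binding.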

[2] = target: Gal(b1-4)GlcNAc(b1-3)Gal(b1-4)GlcNAc(b1-6)[Gal(b1-3)]GalNAc
In short: as §1

[3] = target: Gal(b1-4)GlcNAc(b1-3)Gal(b1-4)[Fuc(a1-3)]GlcNAc(b1-3)Gal(b1-4)[Fuc(a1-3)]GlcNAc
In short: as §1

[4] = target: Gal(b1-4)GlcNAc(b1-3)GalNAc
In short: as §1

[5] = target: Gal(b1-4)GlcNAc(b1-3)[Fuc(a1-3)GlcNAc(b1-6)]Gal(b1-4)Glc
In short: as §1

[6] = target: Gal(b1-4)GlcNAc(b1-3)[Gal(b1-4)GlcNAc(b1-6)]Gal(b1-4)GlcNAc
In short: as §1

[7] = target: Gal(b1-4)GlcNAc(b1-3)[GlcNAc(b1-6)]Gal(b1-4)GlcNAc
In short: as §1

[8] = target: Gal(b1-4)GlcNAc(b1-6)Gal(b1-4)GlcNAc
In short: as §1

[9] = target: Gal(b1-4)GlcNAc(b1-6)GalNAc
In short: as §1

[10] = target: Gal(b1-4)GlcNAc(b1-6)[Gal(b1-3)]GalNAc
In short: as §1

[11] = target: Gal(b1-4)GlcNAc(b1-6)[Gal(b1-4)GlcNAc(b1-3)]GalNAc
In short: as §1

Gal(b1-4)GlcNAc6P = target: Gal(b1-4)GlcNAc6P
In short: as §1

Gal(b1-6)Gal = target: Gal(b1-6)Gal
In short: as §1

Gal3S(b1-3)GalNAc = target: Gal3S(b1-3)GalNAc
In short: as §1

Gal3S(b1-3)GlcNAc = target: Gal3S(b1-3)GlcNAc
In short: as §1

[12] = target: Gal3S(b1-3)[Fuc(a1-4)]GlcNAc
In short: as §1

Gal3S(b1-4)Glc = target: Gal3S(b1-4)Glc
In short: as §1

Gal3S(b1-4)Glc6S = target: Gal3S(b1-4)Glc6S
In short: as §1

Gal3S(b1-4)GlcNAc = target: Gal3S(b1-4)GlcNAc
In short: as §1

[13] = target: Gal3S(b1-4)[Fuc(a1-3)]Glc6S
In short: as §1

[14] = target: Gal3S(b1-4)[Fuc(a1-3)]GlcNAc
In short: as §1

[15] = target: Gal3S(b1-4)[Fuc(a1-3)]GlcNAc6S
In short: as §1

Gal3S4S(b1-4)GlcNAc = target: Gal3S4S(b1-4)GlcNAc
In short: as §1

Gal3S6S(b1-4)GlcNAc = target: Gal3S6S(b1-4)GlcNAc
In short: as §1

Gal3S6S(b1-4)GlcNAc6S = target: Gal3S6S(b1-4)GlcNAc6S
In short: as §1

Gal4S(b1-4)GlcNAc = target: Gal4S(b1-4)GlcNAc
In short: as §1

Gal4S6S(b1-4)GlcNAc = target: Gal4S6S(b1-4)GlcNAc
In short: as §1

Gal6P(b1-4)GlcNAc = target: Gal6P(b1-4)GlcNAc
In short: as §1

Gal6S(b1-3)GlcNAc = target: Gal6S(b1-3)GlcNAc
In short: as §1

Gal6S(b1-3)GlcNAc6S = target: Gal6S(b1-3)GlcNAc6S
In short: as §1

Gal6S(b1-4)Glc = target: Gal6S(b1-4)Glc
In short: as §1

Gal6S(b1-4)Glc6S = target: Gal6S(b1-4)Glc6S
In short: as §1

Gal6S(b1-4)GlcNAc = target: Gal6S(b1-4)GlcNAc
In short: as §1

Gal6S(b1-4)GlcNAc6S = target: Gal6S(b1-4)GlcNAc6S
In short: as §1

GalNAc(a1-3)Gal = target: GalNAc(a1-3)Gal
In short: as §1

GalNAc(a1-3)GalNAc = target: GalNAc(a1-3)GalNAc
In short: as §1

[16] = target: GalNAc(a1-3)GalNAc(b1-3)Gal(a1-4)Gal(b1-4)Glc
In short: as §1

[17] = target: GalNAc(a1-3)GalNAc(b1-3)Gal(a1-4)Gal(b1-4)GlcNAc
In short: as §1

GalNAc(b1-3)Gal = target: GalNAc(b1-3)Gal
In short: as §1

[18] = target: GalNAc(b1-3)Gal(a1-4)Gal(b1-4)GlcNAc
In short: as §1

[19] = target: GalNAc(b1-3)Gal(a1-4)Gal(b1-4)GlcNAc(b1-3)Gal(b1-4)Glc
In short: as §1

[20] = target: GalNAc(b1-3)Gal(a1-6)Gal(b1-4)Glc
In short: as §1

GalNAc(b1-3)GalNAc = target: GalNAc(b1-3)GalNAc
In short: as §1

GalNAc(b1-3)GlcNAc = target: GalNAc(b1-3)GlcNAc
In short: as §1

GalNAc(b1-4)Gal(b1-4)Glc = target: GalNAc(b1-4)Gal(b1-4)Glc
In short: as §1

B1: EfCBM33A (Enterococcus faecalis), Q838S1 (protein)
chain: MKKSLLTIVLAFSFVLGGAALAPTVSEAHGYVASPGSRAFFGSSAGGNLNTNVGRAQWEPQSIEAPKNTFITGKLASAGVSGFEPLDEQTATRWHKTNITTGPLDITWNLTAQHRTASWDYYITKNGWNPNQPLDIKNFDKIASIDGKQEVPNKVVKQTINIPTDRKGYHVIYAVWGIGDTVNAFYQAIDVNIQ
glycan array binding signal (z-score) [1]: -0.931
glycan array binding signal (z-score) [2]: 1.36
glycan array binding signal (z-score) [3]: 0.067
glycan array binding signal (z-score) [4]: -0.261
glycan array binding signal (z-score) [5]: 0.183
glycan array binding signal (z-score) [6]: 1.04
glycan array binding signal (z-score) [7]: -0.489
glycan array binding signal (z-score) [8]: 1.43
glycan array binding signal (z-score) [9]: 0
glycan array binding signal (z-score) [10]: 0.516
glycan array binding signal (z-score) [11]: 0.288
glycan array binding signal (z-score) (Gal(b1-4)GlcNAc6P): -0.716
glycan array binding signal (z-score) (Gal(b1-6)Gal): -1.04
glycan array binding signal (z-score) (Gal3S(b1-3)GalNAc): -0.034
glycan array binding signal (z-score) (Gal3S(b1-3)GlcNAc): 0.456
glycan array binding signal (z-score) [12]: 2.81
glycan array binding signal (z-score) (Gal3S(b1-4)Glc): 0.229
glycan array binding signal (z-score) (Gal3S(b1-4)Glc6S): -0.436
glycan array binding signal (z-score) (Gal3S(b1-4)GlcNAc): -0.149
glycan array binding signal (z-score) [13]: 0.12
glycan array binding signal (z-score) [14]: 1.56
glycan array binding signal (z-score) [15]: -0.305
glycan array binding signal (z-score) (Gal3S4S(b1-4)GlcNAc): -1.01
glycan array binding signal (z-score) (Gal3S6S(b1-4)GlcNAc): -0.444
glycan array binding signal (z-score) (Gal3S6S(b1-4)GlcNAc6S): -0.418
glycan array binding signal (z-score) (Gal4S(b1-4)GlcNAc): -1.18
glycan array binding signal (z-score) (Gal4S6S(b1-4)GlcNAc): -0.01
glycan array binding signal (z-score) (Gal6P(b1-4)GlcNAc): 0.079
glycan array binding signal (z-score) (Gal6S(b1-3)GlcNAc): 0.101
glycan array binding signal (z-score) (Gal6S(b1-3)GlcNAc6S): -0.617
glycan array binding signal (z-score) (Gal6S(b1-4)Glc): 0.979
glycan array binding signal (z-score) (Gal6S(b1-4)Glc6S): -0.674
glycan array binding signal (z-score) (Gal6S(b1-4)GlcNAc): 0.105
glycan array binding signal (z-score) (Gal6S(b1-4)GlcNAc6S): 0.294
glycan array binding signal (z-score) (GalNAc(a1-3)Gal): -1.02
glycan array binding signal (z-score) (GalNAc(a1-3)GalNAc): -0.407
glycan array binding signal (z-score) [16]: -1
glycan array binding signal (z-score) [17]: -0.606
glycan array binding signal (z-score) (GalNAc(b1-3)Gal): 1.69
glycan array binding signal (z-score) [18]: -0.151
glycan array binding signal (z-score) [19]: 0.963
glycan array binding signal (z-score) [20]: -1.28
glycan array binding signal (z-score) (GalNAc(b1-3)GalNAc): -0.516
glycan array binding signal (z-score) (GalNAc(b1-3)GlcNAc): -0.001
glycan array binding signal (z-score) (GalNAc(b1-4)Gal(b1-4)Glc): -0.885
